# Measured values taken from the supplement of paper PMC10727501.
# This is one part of the list. This data set is noisy: repeats of one test often differ as much as different tests do.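 Free-swimming zebrafish larvae were assessed for O-bend response probability to dark flashes (naive: first five; training: remaining flashes across four 60-flash blocks; test: later 60-flash block) and for OMR turning toward alternating leftward/rightward LED motion. Six treated larvae were compared against sixty 0.1% DMSO controls; hits required |SSMD|≥2.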
# Tests used:
# Conditions in all cases: 10 µM; pre-incubation: 30-90 min
# [1] = tested on: Danio rerio larvae (5 dpf, TLF); experiment: OMR-Perf (SSMD vs DMSO vehicle); higher = higher than vehicle (e.g. higher dark-flash O-bend response probability, or better optomotor performance)
# [2] = tested on: Danio rerio larvae (5 dpf, TLF); experiment: Prob-Test (SSMD vs DMSO vehicle); higher = higher than vehicle (e.g. higher dark-flash O-bend response probability, or better optomotor performance)
# [3] = tested on: Danio rerio larvae (5 dpf, TLF); experiment: Prob-Naive (SSMD vs DMSO vehicle); higher = higher than vehicle (e.g. higher dark-flash O-bend response probability, or better optomotor performance)
# [4] = tested on: Danio rerio larvae (5 dpf, TLF); experiment: Prob-Train (SSMD vs DMSO vehicle); higher = higher than vehicle (e.g. higher dark-flash O-bend response probability, or better optomotor performance)
Compound,OMR-Perf [1],Prob-Test [2],Prob-Naive [3],Prob-Train [4]
CC1(C)S[C@@H]2[C@H](NC(=O)Cc3ccccc3)C(=O)N2[C@H]1C(=O)[O-].[Na+] [Penicillin G Sodium],-0.488,-0.0705,-0.18,-0.585
CC(O)C(=O)O.CCOc1ccc2nc3cc(N)ccc3c(N)c2c1.O [Ethacridine lactate monohydrate],0.255,-0.618,-0.294,-0.122
Cc1cn([C@@H]2C[C@@H](O)[C@H](CO)O2)c(=O)[nH]c1=O [Telbivudine],-0.365,-0.242,0.112,-0.37
CCc1c2c(nc3ccc(O)cc13)-c1cc3c(c(=O)n1C2)COC(=O)[C@]3(O)CC,-0.622,0.386,0.0292,-0.0267
O=C(Nc1c[nH]nc1-c1nc2cc(CN3CCOCC3)ccc2[nH]1)NC1CC1,-0.348,-0.0962,-0.766,-0.169
CN(C)[C@H]1C(O)=C(C(N)=O)C(=O)[C@@]2(O)C(O)=C3C(=O)c4c(O)cccc4[C@](C)(O)[C@H]3[C@@H](O)[C@@H]12.O.O [Oxytetracycline dihydrate],-0.0991,0.42,0.131,0.0586
C#Cc1cccc(Nc2ncnc3cc4c(cc23)OCCOCCOCCO4)c1 [Icotinib],0.0889,-0.45,-0.304,-0.289
CC[C@H]1OC(=O)C[C@@H](O)[C@H](C)[C@@H](O[C@@H]2O[C@@H](C)[C@@H](O)[C@H](N(C)C)[C@H]2O)[C@@H](CCN2C[C@H](C)C[C@@H](C)C2)C[C@@H](C)C(=O)/C=C/C(C)=C/[C@H]1CO[C@@H]1O[C@@H](C)[C@@H](O)[C@@H](OC)[C@H]1OC [Tilmicosin],0.0127,-0.225,-0.181,-0.727
C[C@@]12CC[C@H]3c4ccc(O)cc4C[C@@H](CCCCCCCCCS(=O)CCCC(F)(F)C(F)(F)F)[C@H]3[C@@H]1CC[C@@H]2O (stereo partly specified) [Fulvestrant],-0.0842,0.19,0.153,-0.0274
Cc1cc(F)c(Nc2ncnc3cc(OCc4ccccc4)ccc23)cc1O.Cl,-0.0707,-0.0421,0.0457,-0.0889
CS(=O)(=O)O.C[C@H](NCc1ccc(OCc2cccc(F)c2)cc1)C(N)=O [Safinamide Mesylate],0.347,-0.158,0.584,-0.187
C[C@@H]1[C@H](C)CC[C@]2(C(=O)O)CC[C@]3(C)C(=CC[C@H]4[C@@]5(C)C[C@@H](O)[C@H](O)[C@@](C)(CO)[C@@H]5CC[C@]43C)[C@@H]12 [Asiatic Acid],-0.669,-0.373,-0.931,-1.01
NC(=O)C1CCCc2c1[nH]c1ccc(Cl)cc21 (stereo unspecified) [EX 527 (Selisistat)],-0.586,-0.249,-3.14,-2.27
CN(C)C(=O)c1ccc(S(=O)(=O)c2ccc(NC(=O)C(C)(O)C(F)(F)F)c(Cl)c2)cc1 (stereo unspecified),-0.15,0.231,-0.0588,0.0255
O=C(Nc1cc2cc[nH]c2cn1)c1ccccc1,0.125,0.16,-0.0588,0.933
COc1cc(OC)c(/C=C/S(=O)(=O)Cc2ccc(OC)c(NCC(=O)[O-])c2)c(OC)c1.[Na+],0.841,0.498,0.252,0.22
CC1=C(C(=O)OC(C)C)C(c2cccc([N+](=O)[O-])c2)C(C(=O)OC2CN(C(c3ccccc3)c3ccccc3)C2)=C(N)N1 (stereo unspecified) [Azelnidipine],-0.679,-1.76,-0.199,-1.36
Nc1nc2c(ncn2[C@@H]2O[C@@H](CO)[C@@H](O)[C@H]2O)c(=O)[nH]1 [Guanosine],-0.549,-0.205,0.47,-0.0843
Cl.NC1=NCC2c3ccccc3Cc3ccccc3N12 (stereo unspecified) [Epinastine HCl],-0.585,-0.409,-0.148,-0.591
CC[C@H]1OC(=O)[C@H](C)[C@H](O[C@@H]2C[C@@](C)(OC)[C@@H](O)[C@H](C)O2)[C@H](C)[C@@H](O[C@@H]2O[C@H](C)C[C@H](N(C)C)[C@@H]2O)[C@](C)(OC)C[C@@H](C)C(=O)[C@H](C)[C@@H](O)[C@]1(C)O [Clarithromycin],0.0322,-0.233,-0.471,0.124
NS(=O)(=O)C#Cc1ccccc1 [Pifithrin-Î¼],-0.617,-0.527,-0.528,-0.924
C[C@]12CCC(=O)C=C1CC[C@@H]1[C@H]2[C@H](O)C[C@@]2(C)[C@H]1CC[C@@]2(O)C(=O)CO [Hydrocortisone],0.506,0.243,0.459,0.261
Cc1ccc(NC(=O)c2ccc(CN3CC[C@H](N(C)C)C3)c(C(F)(F)F)c2)cc1Nc1ncc(-c2cncnc2)cn1 [Bafetinib (INNO-406)],0.33,0.161,0.773,-0.561
CNC(=O)c1ccccc1Nc1nc(Nc2ccc(N3CCOCC3)cc2OC)ncc1Cl,1.21,-1.83,-0.412,-1.29
CCOC(=O)[C@H](CCc1ccccc1)N[C@@H](C)C(=O)N1Cc2ccccc2C[C@H]1C(=O)O.Cl [Quinapril HCl],-0.392,0.513,0.105,0.297

# 13 entries out of the list, ordered by molecular weight, rising.
Compound,OMR-Perf [1],Prob-Test [2],Prob-Naive [3],Prob-Train [4]
NS(=O)(=O)C#Cc1ccccc1 [Pifithrin-Î¼],-0.617,-0.527,-0.528,-0.924
O=C(Nc1cc2cc[nH]c2cn1)c1ccccc1,0.125,0.16,-0.0588,0.933
Cc1cn([C@@H]2C[C@@H](O)[C@H](CO)O2)c(=O)[nH]c1=O [Telbivudine],-0.365,-0.242,0.112,-0.37
NC(=O)C1CCCc2c1[nH]c1ccc(Cl)cc21 (stereo unspecified) [EX 527 (Selisistat)],-0.586,-0.249,-3.14,-2.27
Nc1nc2c(ncn2[C@@H]2O[C@@H](CO)[C@@H](O)[C@H]2O)c(=O)[nH]1 [Guanosine],-0.549,-0.205,0.47,-0.0843
C[C@]12CCC(=O)C=C1CC[C@@H]1[C@H]2[C@H](O)C[C@@]2(C)[C@H]1CC[C@@]2(O)C(=O)CO [Hydrocortisone],0.506,0.243,0.459,0.261
O=C(Nc1c[nH]nc1-c1nc2cc(CN3CCOCC3)ccc2[nH]1)NC1CC1,-0.348,-0.0962,-0.766,-0.169
CCc1c2c(nc3ccc(O)cc13)-c1cc3c(c(=O)n1C2)COC(=O)[C@]3(O)CC,-0.622,0.386,0.0292,-0.0267
CNC(=O)c1ccccc1Nc1nc(Nc2ccc(N3CCOCC3)cc2OC)ncc1Cl,1.21,-1.83,-0.412,-1.29
CN(C)C(=O)c1ccc(S(=O)(=O)c2ccc(NC(=O)C(C)(O)C(F)(F)F)c(Cl)c2)cc1 (stereo unspecified),-0.15,0.231,-0.0588,0.0255
Cc1ccc(NC(=O)c2ccc(CN3CC[C@H](N(C)C)C3)c(C(F)(F)F)c2)cc1Nc1ncc(-c2cncnc2)cn1 [Bafetinib (INNO-406)],0.33,0.161,0.773,-0.561
CC1=C(C(=O)OC(C)C)C(c2cccc([N+](=O)[O-])c2)C(C(=O)OC2CN(C(c3ccccc3)c3ccccc3)C2)=C(N)N1 (stereo unspecified) [Azelnidipine],-0.679,-1.76,-0.199,-1.36
C[C@@]12CC[C@H]3c4ccc(O)cc4C[C@@H](CCCCCCCCCS(=O)CCCC(F)(F)C(F)(F)F)[C@H]3[C@@H]1CC[C@@H]2O (stereo partly specified) [Fulvestrant],-0.0842,0.19,0.153,-0.0274

# (further entries)

Compound,OMR-Perf [1],Prob-Test [2],Prob-Naive [3],Prob-Train [4]
CCCNC(=O)Nc1ccc(Oc2ncnc3cc(OC)c(OC)cc23)cc1Cl,-0.0258,-0.315,0.113,-0.267
CC(C)Cc1ccc(C(C)C(=O)O)cc1.NCCCC[C@H](N)C(=O)O (stereo unspecified) [Ibuprofen Lysine (NeoProfen)],-0.0531,-0.835,-0.0588,-0.823
CCOc1ccc(NC(C)=O)cc1 [Phenacetin],-0.113,-0.329,0.131,-0.0759
Nc1ccn([C@H]2CC[C@@H](CO)O2)c(=O)n1 [Zalcitabine],0.342,0.397,0.549,0.0486
Cl.Cl.Cl.Cl.Cl.NCCNCCNCCNCCN [Tetraethylenepentamine 5HCl],0.431,0.521,-0.491,0.0703
CCOc1cc2ncc(C#N)c(Nc3ccc(OCc4ccccn4)c(Cl)c3)c2cc1NC(=O)/C=C/CN(C)C [Neratinib (HKI-272)],0.263,0.488,-0.212,0.0647
Cn1cc(/C=C/C(=O)c2cccc(F)c2)cc1/C=C/C(=O)NO,-0.4,-0.263,-0.613,-0.642
CCS(=O)(=O)N1CC(CC#N)(n2cc(-c3ncnc4[nH]ccc34)cn2)C1,-0.455,-0.204,0.446,-0.0457
O=[N+]([O-])c1cn2c(n1)OC[C@@H](OCc1ccc(OC(F)(F)F)cc1)C2,0.341,0.464,0.292,-0.206
COc1cc(N2CCC(N)CC2)ccc1Nc1ncc(Cl)c(-c2c[nH]c3ccccc23)n1,0.571,-0.085,-0.315,0.417
O=C1O[C@H]([C@@H](O)CO)C(O)C1O.[Na] (stereo partly specified) [Sodium ascorbate],-0.543,0.146,0.312,0.0411
C=CCn1c(=O)c2cnc(Nc3ccc(N4CCN(C)CC4)cc3)nc2n1-c1cccc(C(C)(C)O)n1,0.734,0.241,0.214,-0.277
Br.NC(=O)C(c1ccccc1)(c1ccccc1)[C@@H]1CCN(CCc2ccc3c(c2)CCO3)C1 [Darifenacin HBr],0.0837,-0.226,0.6,-0.374
CNS(=O)(=O)Cc1ccc2[nH]cc(CCN(C)C)c2c1.O=C(O)CCC(=O)O [Sumatriptan Succinate],0.0155,0.687,-0.146,0.436
C[C@H](CCC(=O)O)[C@@H]1CC[C@H]2[C@@H]3[C@H](O)C[C@@H]4C[C@H](O)CC[C@]4(C)[C@@H]3CC[C@@]21C [Chenodeoxycholic Acid],-0.186,-0.787,0.184,-0.623
CN1CCCCC1CCN1c2ccccc2Sc2ccc(S(C)=O)cc21.O=S(=O)(O)c1ccccc1 (stereo unspecified) [Mesoridazine Besylate],-0.587,-0.426,0.153,-0.517
CCOC(=O)c1ncn2c1CN(C)C(=O)c1cc(F)ccc1-2 [Flumazenil],0.0361,0.0295,-0.276,0.0627
COc1ccc(CNCc2cccc3ccccc23)cc1.Cl,-0.00791,-0.832,0.42,0.0391
CNC(=O)c1ccc(C)c(-n2c(C)cc(OCc3ccc(F)cc3F)c(Br)c2=O)c1,-0.224,-0.453,0.285,-0.227
C/C(=N\NC(=O)c1cccc(S(=O)(=O)N2CCOCC2)c1)c1cc(Cl)ccc1O,-0.0452,-0.511,-0.268,-0.352
O=C(CCc1ccc(O)cc1)c1c(O)cc(O)cc1O [Phloretin],-0.43,-0.389,-0.206,-0.411
CC(C)(C)c1cnc(CSc2cnc(NC(=O)C3CCNCC3)s2)o1,-0.264,-0.564,0.568,-0.293
Cl.N=C(N)NCCCC(N)C(=O)O (stereo in doubt) [L-Arginine HCl],0.498,-0.57,0.421,-0.306
C=C1CC[C@H](O)C/C1=C\C=C1/CCC[C@@]2(C)[C@H]1CC[C@H]2[C@H](C)CCCC(C)C [Vitamin D3],0.671,-0.527,0.00662,-0.165
